# Literature values in patent US5972639A, “Fluorescence-based assays for measuring cell proliferation” (Irori, priority 1997, dated 1999).
# At least one compound was matched to its structure with a doubt left.
# Columns and labels:
# [1] = system: Alkaline phosphatase (intestinal); details: cited from earlier work
# [2] = system: fetal bovine aortic endothelial cells; details: Connolly et al. (1986); cited from earlier work
compound,measurement,setting,value
"O=[N+]([O-])c1ccc(OP(=O)(O)O)cc1 [p-NPP, p-nitrophenyl phosphate]","Cleavage shown by high voltage paper, electrophoresis",[1],Yes
same,Km,[2],~1000 µM
